From publication PMC11242351 come the findings set out here.

Amino acid sequences for entries named in this document (tags omitted).
UniProt O95236: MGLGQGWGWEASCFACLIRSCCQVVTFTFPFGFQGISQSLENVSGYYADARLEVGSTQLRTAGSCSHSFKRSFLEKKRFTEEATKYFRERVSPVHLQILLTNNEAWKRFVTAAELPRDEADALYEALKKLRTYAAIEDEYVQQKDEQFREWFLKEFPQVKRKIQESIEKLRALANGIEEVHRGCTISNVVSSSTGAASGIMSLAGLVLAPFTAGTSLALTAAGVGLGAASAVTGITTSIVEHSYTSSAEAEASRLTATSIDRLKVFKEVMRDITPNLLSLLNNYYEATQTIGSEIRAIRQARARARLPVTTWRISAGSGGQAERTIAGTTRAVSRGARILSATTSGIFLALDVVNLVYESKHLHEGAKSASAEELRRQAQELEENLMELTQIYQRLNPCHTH
UniProt P67809: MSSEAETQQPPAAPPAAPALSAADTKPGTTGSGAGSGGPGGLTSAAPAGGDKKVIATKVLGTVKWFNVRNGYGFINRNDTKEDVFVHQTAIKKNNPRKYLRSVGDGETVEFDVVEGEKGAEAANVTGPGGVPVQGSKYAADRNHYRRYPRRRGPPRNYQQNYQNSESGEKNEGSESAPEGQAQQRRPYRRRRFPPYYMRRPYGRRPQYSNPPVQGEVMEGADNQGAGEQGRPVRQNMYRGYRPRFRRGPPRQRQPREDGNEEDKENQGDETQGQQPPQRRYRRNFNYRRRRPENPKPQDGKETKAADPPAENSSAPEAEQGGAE

In this test the target is Apolipoprotein L3 (APOL3), MYC-tagged, overexpressed from the PEGFP-APOL3-MYC vector (UniProt O95236). The test is described as follows: affinity purification with mass spectrometry; APOL3-IP against IgG control from MCF7 cells overexpressing APOL3; proteins identified by mass spectrometry.

Results are given in words; binding and its absence hold for the method and conditions named. In cells and extracts the contact can be indirect. A yes stands for co-enrichment or nearness to the bait. Other partners may have been found.

As for “Y-box binding protein 1 (YBX1) (from UniProt P67809 1-324)”, the binding result is listed as “binds”.
